From PMC6131546 come the findings set out here.

The chains behind the UniProt entries cited, without tags or fusion partners.
UniProt P60520: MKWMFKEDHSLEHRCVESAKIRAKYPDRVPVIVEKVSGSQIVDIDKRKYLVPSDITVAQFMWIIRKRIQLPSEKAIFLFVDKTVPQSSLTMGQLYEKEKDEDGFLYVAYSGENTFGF
UniProt O95166: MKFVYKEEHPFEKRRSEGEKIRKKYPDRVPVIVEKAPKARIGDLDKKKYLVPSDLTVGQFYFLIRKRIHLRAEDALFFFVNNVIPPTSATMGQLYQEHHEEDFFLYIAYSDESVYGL

In assay [1] the target is human GATE-16 (GABARAPL2) in pLexA (human) (UniProt P60520). In words: two-hybrid; co-transformation of pLexA bait and pB42AD prey into EGY48; induced condition (SD/-Leu-His-Trp-Ura with galactose, raffinose and X-gal), 30 °C, blue colonies; strength by the days until the colony turns blue; liquid β-galactosidase activity for some pairs.
The target in assay [2] is human GABARAP in pLexA (human) (UniProt O95166). Described as above.
The target of assay [3] is FLAG-TBC1D9Bα from a stable HEK293 cell line (human) (UniProt Q66K14). In words: co-IP; lysates (1% NP-40 lysis buffer) of HCT116 or HEK293 cells, anti-FLAG M2 affinity gel overnight, immunoblot with anti-LC3B or anti-GFP. (A western blot detects proteins with antibodies after separation by electrophoresis.)

Results are given in words; binding and its absence hold for the method and conditions named. For some of these results: Binding seen in cells or lysates may run through a third protein. Some results given as binding are weak or reduced against the parent protein; the word gives no strength.

As to “ATG8 interaction domain (AID) of TBC1D9B, amino acids 1112-1250, in pB42AD (from UniProt Q66K14-1 1112-1250) (domain or fragment)”, the binding entry in assay [1] and in assay [2] was “binds” throughout.

“GFP-fused GABARAP expressed in HEK293 cells (from UniProt O95166 1-117)”: in assay [3], the binding entry was “binds”.

As to “GFP-fused GATE-16 expressed in HEK293 cells (from UniProt P60520 1-117)”, in assay [3], the binding result is “binds”. Still for that read-out and setting: the result for “GFP-fused LC3A expressed in HEK293 cells (from UniProt Q9H492 1-121)” reads “binds”. For “full length TBC1D9Bα in pB42AD (from UniProt Q66K14-1 1-1250)”, the binding entry in assay [1] and in assay [2] was “binds” throughout.
